Results as given in PMC5543739.
These are yes or no findings as the source states them, for the method shown. In cells and extracts the contact can be indirect. Some entries that bind do so weakly or less than the wild type. For part of these data: Where a sequence is shown, tags or fusion partners need not be part of it.

Chains of the proteins cited; added tags and fusions are not shown.
UniProt P08047: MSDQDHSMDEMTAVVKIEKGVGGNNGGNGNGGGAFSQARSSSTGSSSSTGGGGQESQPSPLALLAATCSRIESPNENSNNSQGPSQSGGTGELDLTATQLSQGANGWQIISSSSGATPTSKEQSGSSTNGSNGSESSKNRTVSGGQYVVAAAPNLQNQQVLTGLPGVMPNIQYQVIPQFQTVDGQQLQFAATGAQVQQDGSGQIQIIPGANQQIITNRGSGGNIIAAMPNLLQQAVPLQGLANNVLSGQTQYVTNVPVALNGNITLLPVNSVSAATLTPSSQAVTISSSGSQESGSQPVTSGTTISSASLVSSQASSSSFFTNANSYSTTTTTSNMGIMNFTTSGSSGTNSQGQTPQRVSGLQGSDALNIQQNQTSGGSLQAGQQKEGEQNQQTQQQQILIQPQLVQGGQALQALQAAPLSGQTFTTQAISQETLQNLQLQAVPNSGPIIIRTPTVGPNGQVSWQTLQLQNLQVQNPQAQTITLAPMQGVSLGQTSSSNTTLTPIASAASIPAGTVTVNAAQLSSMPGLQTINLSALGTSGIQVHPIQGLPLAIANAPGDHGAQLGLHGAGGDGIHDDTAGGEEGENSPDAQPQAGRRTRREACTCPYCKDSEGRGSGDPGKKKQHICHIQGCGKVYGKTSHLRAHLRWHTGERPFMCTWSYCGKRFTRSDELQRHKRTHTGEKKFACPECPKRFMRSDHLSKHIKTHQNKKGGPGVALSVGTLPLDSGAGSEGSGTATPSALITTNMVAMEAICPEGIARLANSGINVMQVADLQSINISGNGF

How the values were obtained:
[1] = target: T1, NFATc2 (nuclear factor of activated T-cells c2), endogenous in PaTu 8988t cells (human (endogenous in PaTu 8988t)) (UniProt Q13469); assay: DNA pull-down; 200 ug lysate protein incubated 3 h with biotinylated double-stranded oligonucleotide with the GGAAA NFAT consensus sequence of the human interleukin-2 promoter, streptavidin-agarose, blotted for NFATc2 and Sp1; cells with or without Ionomycin, with siControl or NFATc2 siRNA
T1 sequence: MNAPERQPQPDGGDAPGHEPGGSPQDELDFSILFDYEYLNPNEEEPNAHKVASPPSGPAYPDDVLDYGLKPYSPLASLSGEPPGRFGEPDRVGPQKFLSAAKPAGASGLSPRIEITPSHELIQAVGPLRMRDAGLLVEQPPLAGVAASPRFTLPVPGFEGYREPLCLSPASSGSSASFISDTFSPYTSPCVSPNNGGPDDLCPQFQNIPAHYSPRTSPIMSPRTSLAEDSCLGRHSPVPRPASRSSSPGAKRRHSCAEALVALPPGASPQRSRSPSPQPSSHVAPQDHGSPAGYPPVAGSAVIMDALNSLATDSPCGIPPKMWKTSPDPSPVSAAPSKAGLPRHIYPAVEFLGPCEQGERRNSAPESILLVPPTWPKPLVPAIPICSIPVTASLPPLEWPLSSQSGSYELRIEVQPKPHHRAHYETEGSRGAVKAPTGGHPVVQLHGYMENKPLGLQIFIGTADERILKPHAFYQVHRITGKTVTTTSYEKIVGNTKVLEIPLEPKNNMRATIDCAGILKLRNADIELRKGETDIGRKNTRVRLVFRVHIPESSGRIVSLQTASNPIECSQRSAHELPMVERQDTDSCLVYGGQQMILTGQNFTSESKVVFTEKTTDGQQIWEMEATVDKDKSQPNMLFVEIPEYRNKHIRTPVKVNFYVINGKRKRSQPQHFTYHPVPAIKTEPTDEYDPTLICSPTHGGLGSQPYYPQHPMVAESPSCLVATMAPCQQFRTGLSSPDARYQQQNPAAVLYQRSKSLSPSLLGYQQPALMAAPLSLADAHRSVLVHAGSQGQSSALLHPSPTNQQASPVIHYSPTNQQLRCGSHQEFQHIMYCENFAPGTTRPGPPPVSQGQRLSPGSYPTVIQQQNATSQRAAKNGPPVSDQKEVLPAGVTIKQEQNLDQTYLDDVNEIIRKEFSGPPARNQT

[2] = target: T1, NFATc2 (nuclear factor of activated T-cells c2), endogenous in PaTu 8988t cells (human (endogenous in PaTu 8988t)); assay: co-IP; 500 ug PaTu 8988t lysate immunoprecipitated with anti-NFATc2 antibody and protein G or A agarose, blotted for Sp1 and MEF 2A; cells serum-free 3 h, then 0.5 uM Ionomycin for 0, 10, 60 min
[3] = target: T2, GST-NFATc2 fusion protein (UniProt Q13469); assay: pull-down; 3 ug bacteriologically expressed GST or GST-NFAT on glutathione agarose beads incubated with total protein of PaTu 8988t cells overexpressing Sp1, 4 °C, 15-18 h; Western blot; only the target purified
T2 sequence: T1 sequence

Substance: Sp1 (specificity protein 1), endogenous in PaTu 8988t cells (from UniProt P08047 1-785)
- binding [1]: binds
- binding [2]: binds

Substance: Sp1 overexpressed in PaTu 8988t cells by transfection (from UniProt P08047 1-785)
- binding [3]: binds
